{
  "source": "paper PMC4956214",
  "about": "(PLoS ONE, 2016)",
  "note": "Where a sequence shows no end group, the ends are not given.",
  "data": [
    {"assay": "general procedure: Fmoc solid-phase peptide synthesis; Rink amide MBHA resin (100–200 mesh, 0.4–0.8 mmol/g loading); HATU/DIPEA", "conditions": "purification step", "units": {"step yield": "%"}, "values": [
      {"sequence": "AKDANNIEDDPVN", "step yield": 28},
      {"sequence": "AYLIWIRILEDNPSEY", "step yield": 38},
      {"sequence": "GSLIIENGNCSGDLSTLLPNLTVIRNQVI", "step yield": 32},
      {"sequence": "HEPKCHKVIEPITN", "step yield": 44},
      {"sequence": "HKQSDESEFPPSWTRS", "step yield": 28},
      {"sequence": "IGIDESESIIETIC", "step yield": 19},
      {"sequence": "ILPVIVDEVVSLKSDTVG", "step yield": 28},
      {"sequence": "IPRDASLPFLKEVTGSLLVYDTEGPEDL", "step yield": 28},
      {"sequence": "LFFNYALVIFEMVHLKELGLYNLMNITRGSVRIEKNNELC", "step yield": 25},
      {"sequence": "MDIRNNLTRLHELENCSVIEGHLQILLMF", "step yield": 21},
      {"sequence": "MFTLNRNLCPNDV", "step yield": 40},
      {"sequence": "NLSNLEFDLIEKSNG", "step yield": 35},
      {"sequence": "PRNHDQSYTDSNHS", "step yield": 30},
      {"sequence": "QSGWDKNSLFKHSRQI", "step yield": 40},
      {"sequence": "TLLRLNTIQGSIFN", "step yield": 37}
    ]}
  ]
}
